According to PMC9709245, “The stem region of α1,6-fucosyltransferase FUT8 is required for multimer formation but not catalytic activity” (The Journal of Biological Chemistry, 2022):
These are yes or no findings as the source states them, for the method shown. Binding seen in cells or lysates may run through a third protein. Some results given as binding are weak or reduced against the parent protein; the word gives no strength. Blank lines part the entries; values can stand above or below the binder they belong to.

What was measured:
[1] = target: T1, alpha-1,6-fucosyltransferase FUT8 WT (human, UniProt Q9BYC5 1-575); experiment: co-IP; lysates (TBS, 1% Triton X-100) of HEK293 FUT8KO cells coexpressing Myc-tagged FUT8 WT or mutant with 3xFLAG-FUT8 WT; anti-DYKDDDDK antibody magnetic beads, 4 °C overnight; anti-Myc blot; IP signal divided by input, relative to FUT8 WT
T1 construct: No chain bears both Myc and 3xFLAG; also called Myc-FUT8; Myc-tagged FUT8; source: HEK293 FUT8KO, transfected, in lysate; not shown: Myc (copy from pcDNA6-mycHisA), C-terminal, kept; His tag (from the vector pcDNA6-mycHisA); 3xFLAG (other copy; from pME-3xFLAG), C-terminal, kept
T1 sequence (looked up): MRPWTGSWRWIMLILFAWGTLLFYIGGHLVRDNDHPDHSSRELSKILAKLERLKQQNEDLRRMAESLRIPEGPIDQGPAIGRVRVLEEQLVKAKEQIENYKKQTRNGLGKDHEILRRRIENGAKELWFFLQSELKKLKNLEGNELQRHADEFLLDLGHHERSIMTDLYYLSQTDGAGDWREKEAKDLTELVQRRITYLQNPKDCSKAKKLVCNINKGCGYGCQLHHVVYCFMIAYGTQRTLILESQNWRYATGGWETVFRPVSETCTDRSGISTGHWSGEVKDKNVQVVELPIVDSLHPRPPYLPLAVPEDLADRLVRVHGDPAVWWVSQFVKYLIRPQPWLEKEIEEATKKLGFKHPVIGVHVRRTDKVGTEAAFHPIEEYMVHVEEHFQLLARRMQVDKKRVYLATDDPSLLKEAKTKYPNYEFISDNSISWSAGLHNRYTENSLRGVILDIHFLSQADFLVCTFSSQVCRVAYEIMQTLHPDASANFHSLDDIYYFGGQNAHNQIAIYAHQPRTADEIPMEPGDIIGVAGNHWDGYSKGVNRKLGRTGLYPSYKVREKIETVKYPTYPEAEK

FUT8Δstem-GSx40 (human) = FUT8Δstem-GSx40 (human) (UniProt Q9BYC5); experiment: co-IP; lysates (TBS, 1% Triton X-100) of HEK293 FUT8KO cells expressing Myc-tagged FUT8 WT or mutant; anti-Myc antibody and Dynabeads protein G, 4 °C overnight; blot with anti-RPN1 (endogenous RPN1)
FUT8Δstem-GSx22 (human) = FUT8Δstem-GSx22 (human) (UniProt Q9BYC5); experiment: as above
[2] = target: T1, alpha-1,6-fucosyltransferase FUT8 WT; experiment: as above

binding [1]: binds
B1: alpha-1,6-fucosyltransferase FUT8 WT (enzyme, UniProt Q9BYC5 1-575)
chain: T1 sequence (looked up)

binding (FUT8Δstem-GSx40 (human)): binds weakly
binding (FUT8Δstem-GSx22 (human)): binds weakly
binding [2]: binds
B2: ribophorin I (RPN1) (protein, UniProt P04843 24-607)
chain: ASSEAPPLINEDVKRTVDLSSHLAKVTAEVVLAHLGGGSTSRATSFLLALEPELEARLAHLGVQVKGEDEEENNLEVRETKIKGKSGRFFTVKLPVALDPGAKISVIVETVYTHVLHPYPTQITQSEKQFVVFEGNHYFYSPYPTKTQTMRVKLASRNVESYTKLGNPTRSEDLLDYGPFRDVPAYSQDTFKVHYENNSPFLTITSMTRVIEVSHWGNIAVEENVDLKHTGAVLKGPFSRYDYQRQPDSGISSIRSFKTILPAAAQDVYYRDEIGNVSTSHLLILDDSVEMEIRPRFPLFGGWKTHYIVGYNLPSYEYLYNLGDQYALKMRFVDHVFDEQVIDSLTVKIILPEGAKNIEIDSPYEISRAPDELHYTYLDTFGRPVIVAYKKNLVEQHIQDIVVHYTFNKVLMLQEPLLVVAAFYILFFTVIIYVRLDFSITKDPAAEARMKVACITEQVLTLVNKRIGLYRHFDETVNRYKQSRDISTLNSGKKSLETEHKALTSEIALLQSRLKTEGSDLCDRVSEMQKLDAQVKELVLKSAVEAERLVAGKLKKDTYIENEKLISGKRQELVTKIDHILDAL

binding [1]: binds
B3: FUT8Δcoiled-coil (enzyme, UniProt Q9BYC5 1-108; Q9BYC5 174-575)
chain: MRPWTGSWRWIMLILFAWGTLLFYIGGHLVRDNDHPDHSSRELSKILAKLERLKQQNEDLRRMAESLRIPEGPIDQGPAIGRVRVLEEQLVKAKEQIENYKKQTRNGLGSGSDGAGDWREKEAKDLTELVQRRITYLQNPKDCSKAKKLVCNINKGCGYGCQLHHVVYCFMIAYGTQRTLILESQNWRYATGGWETVFRPVSETCTDRSGISTGHWSGEVKDKNVQVVELPIVDSLHPRPPYLPLAVPEDLADRLVRVHGDPAVWWVSQFVKYLIRPQPWLEKEIEEATKKLGFKHPVIGVHVRRTDKVGTEAAFHPIEEYMVHVEEHFQLLARRMQVDKKRVYLATDDPSLLKEAKTKYPNYEFISDNSISWSAGLHNRYTENSLRGVILDIHFLSQADFLVCTFSSQVCRVAYEIMQTLHPDASANFHSLDDIYYFGGQNAHNQIAIYAHQPRTADEIPMEPGDIIGVAGNHWDGYSKGVNRKLGRTGLYPSYKVREKIETVKYPTYPEAEK
